Data as given in PubChem BioAssay AID1224830 (NIAID, 2016).
Aim: 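Genes whose knock-down alters the TNF-alpha reporter response to LPS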 (primary screen). System: human THP-1 monocytic leukaemia cells, TNF dual-luciferase reporter clone, PMA-differentiated to macrophage-like cells. Reagents: siRNA pool against human genes, 50 nM. Timing: LPS for 4 h, given about 3 days after siRNA transfection. Treatment: bacterial LPS (TLR4 ligand), 10 ng/ml. Read-out: 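Ratio of firefly to renilla light, scaled to the plate median and expressed as a robust z-score per replicate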. Direction: TNF reporter robust z-score: higher = stronger TNF reporter response to LPS. Rule for the call: 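a well is active when its z-score exceeds 2.8 or falls below -1.5; control wells carry no call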.
In all, the deposit lists about 18,000 reagents; shown is a random part of them. About 2,900 of them (16%) were called active. 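Calls are made per well; low scores hint the gene aids the LPS response, high scores that it dampens it.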 Repeated entries: four replicate wells of each siRNA pool. Reagent sequences are not shown.

| gene symbol | PubChem SID | TNF reporter robust z-score | Call |
| --- | --- | --- | --- |
| MAPK8IP1 | SID315453319 | -0.53 | inactive |
| MAPK8IP1 | SID315453319 | -0.55 | inactive |
| MAPK8IP1 | SID315453319 | -0.66 | inactive |
| MAPK8IP1 | SID315453319 | 0.46 | inactive |
| SMARCAD1 | SID315458158 | 1.11 | inactive |
| SMARCAD1 | SID315458158 | 0.61 | inactive |
| SMARCAD1 | SID315458158 | 0.67 | inactive |
| SMARCAD1 | SID315458158 | 2.18 | inactive |
| RPAP3 | SID315459359 | -1.68 | active |
| RPAP3 | SID315459359 | -1.49 | inactive |
| RPAP3 | SID315459359 | -1.57 | active |
| FAM168A | SID315455068 | -0.51 | inactive |
| FAM168A | SID315455068 | -0.03 | inactive |
| FAM168A | SID315455068 | 1.69 | inactive |
| FAM168A | SID315455068 | 0.84 | inactive |
| C3orf22 | SID315462520 | 3.52 | active |
| C3orf22 | SID315462520 | 0.53 | inactive |
| C3orf22 | SID315462520 | -0.72 | inactive |
| C3orf22 | SID315462520 | 0.64 | inactive |
| NCOA6 | SID315454957 | -1.8 | active |
| NCOA6 | SID315454957 | -1.78 | active |
| NCOA6 | SID315454957 | -1.54 | active |
| HMCN2 | SID315464701 | -1.17 | inactive |
| HMCN2 | SID315464701 | -1.68 | active |
| HMCN2 | SID315464701 | -1.39 | inactive |
| HMCN2 | SID315464701 | -1.11 | inactive |
| ERP29 | SID315454492 | 1.57 | inactive |
| ERP29 | SID315454492 | 3.36 | active |
| ERP29 | SID315454492 | 1.5 | inactive |
| ERP29 | SID315454492 | 4.17 | active |
| GPR143 | SID315450335 | -0.39 | inactive |
| GPR143 | SID315450335 | -0.26 | inactive |
| GPR143 | SID315450335 | 0.9 | inactive |
| GPR143 | SID315450335 | 0.1 | inactive |
| THRAP3 | SID315453715 | 0.37 | inactive |
| THRAP3 | SID315453715 | 0.13 | inactive |
| THRAP3 | SID315453715 | 0.25 | inactive |
| THRAP3 | SID315453715 | -0.31 | inactive |
| ZNF711 | SID315452191 | -1.35 | inactive |
| ZNF711 | SID315452191 | -1.43 | inactive |
| ZNF711 | SID315452191 | -1.16 | inactive |
| ZNF711 | SID315452191 | -1.23 | inactive |
| MRPL3 | SID315454697 | 0.11 | inactive |
| MRPL3 | SID315454697 | -0.78 | inactive |
| MRPL3 | SID315454697 | -0.47 | inactive |
| MRPL3 | SID315454697 | -0.58 | inactive |
| H2AJ | SID315457840 | -1.15 | inactive |
| H2AJ | SID315457840 | -0.21 | inactive |
| H2AJ | SID315457840 | 0.01 | inactive |
| H2AJ | SID315457840 | -0.05 | inactive |
| GDF10 | SID315448873 | -1.04 | inactive |
| GDF10 | SID315448873 | -0.19 | inactive |
| GDF10 | SID315448873 | -0.63 | inactive |
| GDF10 | SID315448873 | 0.27 | inactive |
| CCDC28A | SID315455540 | 0.01 | inactive |
| CCDC28A | SID315455540 | 0.93 | inactive |
| CCDC28A | SID315455540 | 1.51 | inactive |
| CCDC28A | SID315455540 | 1.58 | inactive |
| ALPI | SID315447288 | -0.81 | inactive |
| ALPI | SID315447288 | -1.26 | inactive |
| ALPI | SID315447288 | -1.59 | active |
| ALPI | SID315447288 | -0.91 | inactive |
| ZNF675 | SID315462930 | -0.02 | inactive |
| ZNF675 | SID315462930 | 0.36 | inactive |
| ZNF675 | SID315462930 | -0.42 | inactive |
| ZNF675 | SID315462930 | -0.65 | inactive |
| WDR62 | SID315463778 | -1.1 | inactive |
| WDR62 | SID315463778 | -1.11 | inactive |
| WDR62 | SID315463778 | -1.28 | inactive |
| WDR62 | SID315463778 | -1.5 | inactive |
| GUCY1A2 | SID315449105 | -0.07 | inactive |
| GUCY1A2 | SID315449105 | 1.87 | inactive |
| GUCY1A2 | SID315449105 | 1.7 | inactive |
| GUCY1A2 | SID315449105 | 2.34 | inactive |
| CDK11B | SID315447815 | 0.99 | inactive |
| CDK11B | SID315447815 | 1.45 | inactive |
| CDK11B | SID315447815 | 0.8 | inactive |
| CDK11B | SID315447815 | 1.79 | inactive |
| CLTB | SID315447977 | 0.42 | inactive |
| CLTB | SID315447977 | 0.22 | inactive |
| CLTB | SID315447977 | 0.6 | inactive |
| CLTB | SID315447977 | 0.04 | inactive |
| RCVRN | SID315451086 | 0 | inactive |
| RCVRN | SID315451086 | -0.52 | inactive |
| RCVRN | SID315451086 | -0.64 | inactive |
| RCVRN | SID315451086 | -0.01 | inactive |

The listing continues.
| gene symbol | PubChem SID | TNF reporter robust z-score | Call |
| --- | --- | --- | --- |
| PRSS12 | SID315452597 | -0.36 | inactive |
| PRSS12 | SID315452597 | 0.09 | inactive |
| PRSS12 | SID315452597 | 0.08 | inactive |
| PRSS12 | SID315452597 | 1.95 | inactive |
| ZNF701 | SID315457836 | -0.28 | inactive |
| ZNF701 | SID315457836 | -0.67 | inactive |
| ZNF701 | SID315457836 | -1.06 | inactive |
| ZNF701 | SID315457836 | 0.24 | inactive |
| OSR2 | SID315461340 | -0.48 | inactive |
| OSR2 | SID315461340 | -0.11 | inactive |
| OSR2 | SID315461340 | 1.49 | inactive |
| OSR2 | SID315461340 | 0.17 | inactive |
| MAGEA3 | SID315449854 | 1.36 | inactive |
| MAGEA3 | SID315449854 | 1.21 | inactive |
| MAGEA3 | SID315449854 | 1.52 | inactive |
| MAGEA3 | SID315449854 | 1.05 | inactive |
| CDH17 | SID315447841 | 0.7 | inactive |
| CDH17 | SID315447841 | 1.07 | inactive |
| CDH17 | SID315447841 | 0.16 | inactive |
| CDH17 | SID315447841 | -0.67 | inactive |
| CDK13 | SID315452692 | 1.5 | inactive |
| CDK13 | SID315452692 | 5.23 | active |
| CDK13 | SID315452692 | -0.12 | inactive |
| CDK13 | SID315452692 | -0.85 | inactive |
| ACVR1 | SID315447171 | 0.13 | inactive |
| ACVR1 | SID315447171 | 0.26 | inactive |
| ACVR1 | SID315447171 | 0.48 | inactive |
| ACVR1 | SID315447171 | 1 | inactive |
| TMEM26 | SID315463184 | 0.14 | inactive |
| TMEM26 | SID315463184 | -0.48 | inactive |
| TMEM26 | SID315463184 | -0.86 | inactive |
| TMEM26 | SID315463184 | 2.16 | inactive |
| BATF | SID315454172 | -0.22 | inactive |
| BATF | SID315454172 | -0.2 | inactive |
| BATF | SID315454172 | 0.63 | inactive |
| BATF | SID315454172 | 0.1 | inactive |
| DARS2 | SID315457452 | – | inactive |
| PRICKLE2 | SID315462835 | 0.08 | inactive |
| PRICKLE2 | SID315462835 | 0.7 | inactive |
| PRICKLE2 | SID315462835 | -0.29 | inactive |
| PRICKLE2 | SID315462835 | -0.73 | inactive |
| APOF | SID315447335 | -1.96 | active |
| APOF | SID315447335 | -0.94 | inactive |
| APOF | SID315447335 | -1.48 | inactive |
| APOF | SID315447335 | -0.11 | inactive |
| PCDHA13 | SID315458017 | -1.5 | inactive |
| PCDHA13 | SID315458017 | -1.67 | active |
| PCDHA13 | SID315458017 | -1.57 | active |
| PCDHA13 | SID315458017 | -1.74 | active |
| C17orf67 | SID315464019 | -0.87 | inactive |
| C17orf67 | SID315464019 | 0.51 | inactive |
| C17orf67 | SID315464019 | 0.48 | inactive |
| C17orf67 | SID315464019 | 0.52 | inactive |
| CREBBP | SID315448084 | -1.07 | inactive |
| CREBBP | SID315448084 | -0.47 | inactive |
| CREBBP | SID315448084 | -0.58 | inactive |
| CREBBP | SID315448084 | -0.38 | inactive |
